PubChem BioAssay AID686943 | Drosophila RNAi Screening Center | 2013
Test: 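Search across the genome for regulators of signalling from receptor tyrosine kinase to ERK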 (primary screen). Cells: Drosophila S2R+ haemocyte-like cells expressing YFP-tagged ERK (Rolled). Reagent: long dsRNA against Drosophila genes. Challenge: insulin stimulation versus unstimulated cells; dose and duration not given. Detection: 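Per-plate z-scores of phospho-ERK immunostaining normalised to YFP-tagged ERK, measured with and without insulin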. Reading the numbers: replicate 1, z-score of dpERK with insulin: higher = more active ERK per ERK-YFP after insulin.
In all, the deposit lists about 23,000 reagents; this is a random part of those that have a named target and a result. 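Extra replicates exist only for a retested subset of genes; insulin dose and duration not given; both raised and lowered dpERK matter.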 Reagents against one gene are numbered here. A plus sign joins genes that one reagent is predicted to hit. Further read-outs or replicates are left out here. Reagent sequences are not shown. The record does not give: the amount of reagent, the time to read-out.

Target gene | dsRNA no. | replicate 1, z-score of dpERK with insulin
Oamb (Octopamine receptor in mushroom bodies) | 1 | 0.65
Oamb (Octopamine receptor in mushroom bodies) | 2 | -0.57
Oamb (Octopamine receptor in mushroom bodies) | 3 | 1.2
CG15894 | 1 | 0.68
CG15894 | 2 | -3.36
CG18765 | 1 | 0.97
Pxt (Peroxinectin-like) | 1 | 1.2
dgt4 (dim gamma-tubulin 4) | 1 | 2.38
Cpsf73 (Cleavage and polyadenylation specificity factor 73) | 1 | 0.98
CG30379 | 1 | 0.3
CG30197 | 1 | -1.08

3 successive records already listed:
Target gene | dsRNA no. | replicate 1, z-score of dpERK with insulin
CG15894 | 2 | -3.36
CG18765 | 1 | 0.97
Pxt (Peroxinectin-like) | 1 | 1.2

Continued.
Target gene | dsRNA no. | replicate 1, z-score of dpERK with insulin
CG13168 | 1 | 0.43
CG14370 | 1 | -0.1
rhi (rhino) | 1 | -0.86
Rint1 (RAD50 interactor 1) | 1 | -0.17
CG43234 (retired record) | 1 | -0.48
caps (capricious) | 1 | 0.02
caps (capricious) | 2 | -0.77
Tspo + rempA | 1 | 0.47
Gr58c (Gustatory receptor 58c) | 1 | 0.52
Ak1 (Adenylate kinase 1) | 1 | -0.74
S2P (site-2 protease) | 1 | 0.06
CG17486 | 1 | -0.5
